# According to US20230414775A1 (priority 2021, published 2023):
# Test: general procedure: solution-phase peptide synthesis
Substance,step yield (coupling step) [% yield],further results
"(4S)-5-(4-aminophenyl)-4-(2-((3S,6R,8R)-3-((S)-sec-butyl)-5-hexyl-13,14-dihydroxy-6-isopropyl-1-((R)-1-methylpiperidin-2-yl)-1,4,10-trioxo-9-oxa-2,5,11-triazatetradecan-8-yl)thiazole-4-carboxamido)-2,2-dimethylpentanoic acid (PC-5 aka PA26)",25,–
"(RS)-4-(2-((1R,3R)-1-acetoxy-3-((2S,3S)—N-hexyl-3-methyl-2-((R)-1-methylpiperidine-2-carboxamido)pentanamido)-4-methylpentyl)thiazole-4-carboxamido)-dimethylpentanoic acid (PB-9 aka PA20)",29,–
"(S)-4-(2-((1R,3R)-1-acetamido-3-((2S,3S)—N-hexyl-3-methyl-2-((R)-1-methylpiperidine-2-carboxamido)pentanamido)-4-methylpentyl)thiazole-4-carboxamido)-acid (PC-7)",–,"step yield (coupling step, from 9-7): 34% yield from 9-7%"
"(S)-4-(2-((1R,3R)-1-acetoxy-3-((2S,3S)-2-((R)-1-(((4-((S)-2-((S)-2-amino-3-methylbutanamido)-5-ureidopentanamido)benzyl)oxy)carbonyl)-2-methylpyrrolidine-2-carboxamido)-N-hexyl-3-methylpentanamido)-4-methylpentyl)thiazole-4-carboxamido)-5-(4-amino-3-fluorophenyl)-2,2-dimethylpentanoic acid (10-4a)",–,"step yield (coupling step, from 10-2): 20% yield from 10-2%"
"(S)-4-(2-((1R,3R)-1-acetoxy-3-((2S,3S)-2-((R)-1-(((4-((S)-2-((S)-2-amino-3-methylbutanamido)-5-ureidopentanamido)benzyl)oxy)carbonyl)-2-methylpyrrolidine-2-carboxamido)-N-hexyl-3-methylpentanamido)-4-methylpentyl)thiazole-4-carboxamido)-5-(4-hydroxyphenyl)-2,2-dimethylpentanoic acid (10-4b)",20,–
"(S)-4-(2-((1R,3R)-1-acetoxy-3-((2S,3S)-2-((R)-1-(carboxymethyl)piperidine-2-carboxamido)-N-hexyl-3-methylpentanamido)-4-methylpentyl)thiazole-4-carboxamido)-5-(4-aminophenyl)-2,2-dimethylpentanoic acid (PA-13 aka PA10)",–,"step yield (coupling step, from 4-5): 14% yield"
"(S)-4-(2-((1R,3R)-3-((2S,3S)-2-((R)-1-(2-((tert-butoxycarbonyl)amino)ethyl)piperidine-2-carboxamido)-N-hexyl-3-methylpentanamido)-1-ethoxy-4-methylpentyl)thiazole-4-carboxamido)-5-(4-hydroxyphenyl)-2,2-dimethylpentanoic acid",80,–
"(S)-4-(2-((1R,3R)-3-((2S,3S)-2-((R)-1-(2-aminoethyl)piperidine-2-carboxamido)-N-hexyl-3-methylpentanamido)-1-ethoxy-4-methylpentyl)thiazole-4-carboxamido)-5-(4-hydroxyphenyl)-2,2-dimethylpentanoic acid",–,"step yield (coupling step, from 1-9a): 28% yield from 1-9a; step yield (late stage modification step): 67% yield"
"(S)-4-(2-((1R,3R)-3-((2S,3S)-2-((R)-1-(2-aminoethyl)piperidine-2-carboxamido)-N-hexyl-3-methylpentanamido)-1-ethoxy-4-methylpentyl)thiazole-4-carboxamido)-5-(4-hydroxyphenyl)-2,2-dimethylpentanoic acid (PA-10 aka PA4)",67,–
"(S)-4-(2-((1RS,3RS)-1-acetoxy-3-((2SR,3SR)-2-((R)-1-(2-aminoethyl)-2-methylpyrrolidine-2-carboxamido)-N-hexyl-3-methylpentanamido)-4-methylpentyl)thiazole-4-carboxamido)-5-(4-hydroxyphenyl)-2,2-dimethylpentanoic acid (PA-6 aka PA5)",–,step yield (late stage modification step): 75% yield
"(S)-4-(2-((17R,19R)-1-amino-19-isopropyl-20-(((R)-1-methylpiperidine-2-carbonyl)-L-isoleucyl)-2,15-dioxo-5,8,11,16-tetraoxa-3,14,20-triazahexacosan-17-yl)thiazole-4-carboxamido)-5-(4-amino-3-fluorophenyl)-2,2-dimethylpentanoic acid (16-7)",–,"step yield (coupling step, from 16-6): 55% yield from 16-6%"
"(S)-5-(4-(2-((RS)-2-amino-4-carboxybutanamido)acetamido)phenyl)-4-(2-((1R,3R)-1-ethoxy-3-((2S,3S)—N-hexyl-3-methyl-2-((R)-1-methylpiperidine-2-carboxamido)pentanamido)-4-methylpentyl)thiazole-4-carboxamido)-2,2-dimethylpentanoic acid (14-2)",–,"step yield (coupling step, from 5-4b): 13% yield from 5-4b"
"(S)-5-(4-(2-aminoacetamido)phenyl)-4-(2-((1R,3R)-1-ethoxy-3-((2S,3S)—N-hexyl-2-((R)-1-(2-hydroxyethyl)piperidine-2-carboxamido)-3-methylpentanamido)-4-methylpentyl) thiazole-4-carboxamido)-2,2-dimethylpentanoic acid (PA-12 aka PA9)",30,–
"(S)-5-(4-aminophenyl)-4-(2-((1R,3R)-1-ethoxy-3-((2S,3S)—N-hexyl-2-((R)-1-(2-hydroxyethyl)piperidine-2-carboxamido)-3-methylpentanamido)-4-methylpentyl) thiazole-4-carboxamido)-2,2-dimethylpentanoic acid (PA-11)",15,–
"Ethyl 2-[(1R,3R)-3-[(2S,3S)-2-{[(2R)-1-(2-{[(tert-butoxy)carbonyl]amino}acetyl)-2-methylpyrrolidin-2-yl]formamido}-N-hexyl-3-methylpentanamido]-1-hydroxy-4-methylpentyl]-1,3-thiazole-4-carboxylate (1-5a)",80,–
"Rac-((R)-4-(2-((1S,3S)-1-acetoxy-3-((2R,3R)—N-hexyl-3-methyl-2-((S)-1-methylpiperidine-2-carboxamido)pentanamido)-4-methylpentyl)thiazole-4-carboxamido)-5-(4-aminophenyl)-2,2-dimethylpentanoyl)glycine (PB-10 aka PA29)",11,–
"Rac-(R)-4-(2-((1S,3S)-1-acetoxy-3-((2R,3R)—N-hexyl-3-methyl-2-((S)-1-methylpiperidine-2-carboxamido)pentanamido)-4-methylpentyl)thiazole-4-carboxamido)-acid",25,–
"Rac-(R)-4-(2-((1S,3S)-1-acetoxy-3-((2R,3R)—N-hexyl-3-methyl-2-((S)-1-methylpiperidine-2-carboxamido)pentanamido)-4-methylpentyl)thiazole-4-carboxamido)-acid (PB-4 aka PA16)",14,–
"Rac-(R)-4-(2-((1S,3S)-1-acetoxy-3-((2R,3R)—N-hexyl-3-methyl-2-((S)-1-methylpiperidine-2-carboxamido)pentanamido)-4-methylpentyl)thiazole-4-carboxamido)-acid (PB-7 aka PA18)",2,–
"Rac-(R)-4-(2-((1S,3S)-1-acetoxy-3-((2R,3R)—N-hexyl-3-methyl-2-((S)-1-methylpiperidine-2-carboxamido)pentanamido)-4-methylpentyl)thiazole-4-carboxamido)-acid (PB-8 aka PA19)",37,–
"Rac-(R)-4-(2-((1S,3S)-1-acetoxy-3-((2R,3R)—N-hexyl-3-methyl-2-((S)-piperidine-2-carboxamido)pentanamido)-4-methylpentyl)thiazole-4-carboxamido)-5-(4-((carboxymethyl)amino)phenyl)-2,2-dimethylpentanoic acid (PB-6 aka PA17)",–,"step yield (coupling step, from acid 1-7): 7% yield from 1-7%"
"Rac-(R)-4-(2-((1S,3S)-1-ethoxy-3-((2R,3R)—N-hexyl-3-methyl-2-((S)-1-methylpiperidine-2-carboxamido)pentanamido)-4-methylpentyl)thiazole-4-carboxamido)-acid (PB-3 aka PA15)",15,–
"Rac-(R)-5-(4-((carboxymethyl)amino)phenyl)-4-(2-((1S,3S)-1-ethoxy-3-((2R,3R)—N-hexyl-3-methyl-2-((S)-1-methylpiperidine-2-carboxamido)pentanamido)-4-methylpentyl)thiazole-4-carboxamido)-2,2-dimethylpentanoic acid (PB-5 aka PA30)",21,–
"Rac-(R)-5-(4-((carboxymethyl)amino)phenyl)-4-(2-((1S,3S)-3-((2R,3R)—N-hexyl-3-methyl-2-((S)-piperidine-2-carboxamido)pentanamido)-1-(3-hydroxypropoxy)-4-methylpentyl)thiazole-4-carboxamido)-2,2-dimethylpentanoic acid (PC-2 aka PA23)",5.5,–
"Rac-(R)-5-(4-amino-3-fluorophenyl)-4-(2-((1S,3S)-3-((2R,3R)—N-hexyl-3-methyl-2-((S)-1-methylpiperidine-2-carboxamido)pentanamido)-1-(3-hydroxypropoxy)-4-methylpentyl)thiazole-4-carboxamido)-2,2-dimethylpentanoic acid (PC-1 aka PA22)",13,–
